The values below come from publication PMC9830826.

This assay has as its target T1, Silent mating type information regulation 2 homolog 1 (mouse (endogenous in BV-2)) (UniProt Q923E4).
T1 sequence: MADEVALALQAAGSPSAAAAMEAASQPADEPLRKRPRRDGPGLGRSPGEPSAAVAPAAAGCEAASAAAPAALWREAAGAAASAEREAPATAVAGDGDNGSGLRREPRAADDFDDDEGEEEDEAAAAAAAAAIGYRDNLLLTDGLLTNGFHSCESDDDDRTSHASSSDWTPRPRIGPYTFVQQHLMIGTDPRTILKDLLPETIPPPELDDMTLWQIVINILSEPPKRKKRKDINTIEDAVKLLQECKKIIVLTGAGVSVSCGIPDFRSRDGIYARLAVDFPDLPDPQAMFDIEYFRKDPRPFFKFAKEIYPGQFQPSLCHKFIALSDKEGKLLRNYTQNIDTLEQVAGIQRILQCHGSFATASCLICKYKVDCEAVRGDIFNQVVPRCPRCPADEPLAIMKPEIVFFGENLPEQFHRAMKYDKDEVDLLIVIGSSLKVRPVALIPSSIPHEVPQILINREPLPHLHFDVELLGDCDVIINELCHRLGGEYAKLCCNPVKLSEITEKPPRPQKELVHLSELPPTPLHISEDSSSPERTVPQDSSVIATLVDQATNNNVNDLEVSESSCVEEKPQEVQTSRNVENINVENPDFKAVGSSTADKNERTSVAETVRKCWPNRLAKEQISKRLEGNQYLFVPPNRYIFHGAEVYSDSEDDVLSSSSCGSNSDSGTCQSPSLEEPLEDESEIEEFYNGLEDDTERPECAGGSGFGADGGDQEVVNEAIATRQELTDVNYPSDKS
The assay is described as follows: co-IP; BV-2 cells transfected with KLF3-AS1 overexpression plasmid or vector; lysate in RIPA buffer incubated with Sirt1 antibody or USP22 antibody at 4 °C overnight, protein A/G Sepharose beads 4 h at 4 °C; western blot with anti-Sirt1 or anti-USP22. (In general: In western blotting, separated proteins are transferred to a membrane and probed.)

Results are given in words; binding and its absence hold for the method and conditions named. In cells and extracts the contact can be indirect. Some entries that bind do so weakly or less than the wild type.

B1: Ubiquitin specific peptidase 22 (enzyme, UniProt Q5DU02 1-525)
chain: MVARPEPEVEAMDAELAVPPPGCSHLGSFKVDNWKQNLRAIYQCFVWSGTAEARKRKAKSCVCHVCGIHLNRLHSCLYCVFFGCFTKKHIHDHAKSKRHNLAIDLMYGGIYCFLCQDYIYDKDIEIIAKEEQRKAWKMQGVGEKFSTWEPTKRELELLKHNPKRRKITSNCTIGLRGLINLGNTCFMNCIVQALTHTPLLRDFFLSDRHRCEMQSPSSCLVCEMSSLFQEFYSGHRSPHIPYKLLHLVWTHARHLAGYEQQDAHEFLIAALDVLHRHCKGDDNGKKANNPNHCNCIIDQIFTGGLQSDVTCQVCHGVSTTIDPFWDISLDLPGSSTPFWPLSPGSEGSVVNGESHASGTTTLTDCLRRFTRPEHLGSSAKIKCSGCHSYQESTKQLTMKKLPIVACFHLKRFEHSAKLRRKITTYVSFPLELDMTPFMASSKESRMNGQYQQPLDSLNNDNKYSLFAVVNHQGTLESGHYTSFIRQHKDQWFKCDDAIITKASIKDVLDSEGYLLFYHKQFLEYE
Take B1: the binding result is on record as “binds”.
